Certain results were filed several times, with different values. The list is limited to them. There may be further records. Values given together differ for a reason that is not stated; some may be repeats, others may stem from another dose, organism or construct than stated.
Test: Ex vivo biodistribution
Conditions: after 2 min, anaesthetised rats

## O=C(c1ccc(Cn2cnc3cccc([125I])c32)cc1)N1CC[C@H](N2CCCC2)C1 [[^125I]WYE-230949]
  plateau radioactive concentration in plasma and whole blood: approximately 0.3 %ID/g and 0.2 – 0.3 %ID/g

Source: article PMC4277420, “Assessment of [^125I]WYE-230949 as a Novel Histamine H3 Receptor Radiopharmaceutical” (PLoS ONE, 2014)
